Assay results published in US9459246B2, “Induced intercellular communication” (Nodality, Inc., priority 2009, dated 2016).

Tested on: peripheral blood mononuclear cells (PBMC)
Test: SCNP assay of SAg-modulated PBMC signaling over time, with or without cytokine pathway inhibitors (Examples 10, 11, 13)
Assay type: cell-based, human

Which results are given for `C[C@@H]1CCN(C(=O)CC#N)C[C@@H]1N(C)c1ncnc2[nH]ccc12` [Tofacitinib]?
JAK selectivity in the SCNP assay: pan-JAK promiscuity; IC50 (Homo sapiens, PBMC, read-out: IC50 for p-STAT5 inhibition): < 500 nM
